From PMC6497721, “DNA methylation repels targeting of Arabidopsis REF6”

The chains behind the UniProt entries cited, without tags or fusion partners. Residues count along the entry.
UniProt Q9STM3, 1239-1360: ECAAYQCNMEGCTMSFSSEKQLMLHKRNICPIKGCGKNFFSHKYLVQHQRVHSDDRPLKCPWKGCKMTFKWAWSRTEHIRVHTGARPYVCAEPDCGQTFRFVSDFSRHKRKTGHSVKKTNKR

Key:
[1] = molecular target: GST-REF6C (ZnF1-4) (Arabidopsis thaliana) (UniProt Q9STM3); assay: EMSA; details: 1 uM ZnSO4, EMSA: 25 mM Tris-HCl pH 8.0, 100 mM NaCl, 2.5 mM MgCl2, 0.1% CA-630, 10% glycerol, 1 uM ZnSO4, 1 mM DTT, on ice, recombinant protein, residues 1239-1360, protein details: N-terminal GST (pGEX-6P-1), label: 5'-32P
[2] = molecular target: REF6 ZnF1-4 (Arabidopsis thaliana) (UniProt Q9STM3); assay: ITC; details: 20 uM ZnCl2, ITC: 20 mM Tris-HCl pH 7.5, 150 mM NaCl, 20 uM ZnCl2, 25 C, recombinant protein, residues 1239-1360, protein details: GST removed by PreScission

## CTATCAAATCTTCTATCACCACTCTGTTTTATGGCCATCAAATGATTTCG (double strand) [AT4G11710 50-bp probe]
[1]
  binding result: binds

## CTATCAAATCTTCTATCACCACTCTGTTTTATGGCCATCAAATGATTTCG (double strand) [AT4G11710 50-bp 5mC5]
[1]; 5mC at bottom strand position 25 (opposite top G26), letters put together from the description
  binding result: no binding

## GGGAGAATCTCAAACTTTCTCTGTTTTGTCTTTAGAAACTTTGAAATATC (double strand) [NAC004 50-bp 5mC3]
[1]; 5mC at top strand position 21, letters put together from the description
  binding result: binds more weakly

## TTCTCTGTTTTG (double strand) [NAC004P_5mC5]
[2]; 5mC at bottom strand position 6
  binding result: no binding

## CTATCAAATCTTCTATCACCACTCTGTTTTATGGCCATCAAATGATTTCG (double strand) [AT4G11710 50-bp 5mC3]
[1]; 5mC at top strand position 24, letters put together from the description
  binding result: binds more weakly

## GGGAGAATCTCAAACTTTCTCTGTTTTGTCTTTAGAAACTTTGAAATATC (double strand) [NAC004 50-bp 5mC1]
[1]; 5mC at top strand position 19, letters put together from the description
  binding result: binds more weakly

## CTATCAAATCTTCTATCACCACTCTGTTTTATGGCCATCAAATGATTTCG (double strand) [AT4G11710 50-bp 5mC1+5mC3]
[1]; 5mC at top strand positions 22 and 24, letters put together from the description
  binding result: no binding

## CTATCAAATCTTCTATCACCACTCTGTTTTATGGCCATCAAATGATTTCG (double strand) [AT4G11710 50-bp 5mC1]
[1]; 5mC at top strand position 22, letters put together from the description
  binding result: binds more weakly

## GGGAGAATCTCAAACTTTCTCTGTTTTGTCTTTAGAAACTTTGAAATATC (double strand) [NAC004 50-bp 5mC5]
[1]; 5mC at bottom strand position 28 (opposite top G23), letters put together from the description
  binding result: no binding

## GGGAGAATCTCAAACTTTCTCTGTTTTGTCTTTAGAAACTTTGAAATATC (double strand) [NAC004 50-bp 5mC1+5mC3]
[1]; 5mC at top strand positions 19 and 21, letters put together from the description
  binding result: no binding

## TTCTCTGTTTTG (double strand) [NAC004P_5mC1+5mC3]
[2]; 5mC at top strand positions 3 and 5
  binding result: no binding

A negative result means that nothing was seen under these conditions. For some assays here: At least one verdict was read from the data and is not stated in words by the source. For some assays here: For at least one entry, the source does not settle the construct or the ends of the probe. For some assays here: Weaker means in comparison with the reference protein, sequence or condition of that experiment.
